Data as given in patent US4661516A, “Diaminocyclohexane platinum complexes” (Research Corporation, priority 1984, dated 1987).

Legend:
Male albino mice = experiment: Acute toxicity, single intraperitoneal injection (Example 19); assay type: in vivo; conditions: single i.p.
Experimental: Male albino mice were administered a single intraperitoneal injection of the appropriate test compound and were observed daily for signs of toxicity and survival. Fourteen days after treatment all surviving mice were sacrified and the LD10, LD50 and LD90 were calculated.

[1] = tested on: L1210 leukemia cells (L1210/PDD); experiment: In vitro cytotoxicity / cross-resistance, L1210/PDD (L1210/DDP) cells resistant to cisdiamminedichloroplatinum(II); assay type: cell-based; conditions: 96 hours
Experimental: Four ml of cell suspension were added to culture tubes and the appropriate concentration (0.01, 0.1, 1 or 10 μg/ml final drug concentration) was added. After 96 hours the cell concentration of control and experimental cultures were calculated with the aid of a Coulter Counter® Model ZBf and the percent inhibition calculated.

[2] = tested on: Wild type L1210 leukemic cells; experiment: In vitro cytotoxicity, wild type L1210 leukemic cells (L1210/0); assay type: cell-based; conditions: L1210, 72 hours incubation
Experimental: Four ml of cell suspension (10^5 cells/ml) are added to culture tubes and the appropriate concentration (0.01, 0.1, 1 or 10 μg/ml final concentration) of drug added to the culture tubes. After 72 hours of incubation, the cell concentration of control and experimental cultures are determined with the aid of a Coulter Counter® Model ZBf and the percent inhibition calculated. […]

NC1CCCCC1N.O.O.O=C([O-])C1=CC(O)C(O)C(O)C1.O=C([O-])C1=CC(O)C(O)C(O)C1.[Pt+2] (stereo not drawn) [Compound 10, cis-bis-shikimato(DACH)Pt(II).2H2 O]
DEATHS/TREATED (Male albino mice; 50 mg/kg): 0/6
DEATHS/TREATED (Male albino mice; 100 mg/kg): 1/6
DEATHS/TREATED (Male albino mice; 125 mg/kg): 3/6
DEATHS/TREATED (Male albino mice; 160 mg/kg): 5/6
DEATHS/TREATED (Male albino mice; 200 mg/kg): 3/6
Calculated LD10 (Male albino mice; 14 days): 85 mg/kg
Calculated LD50 (Male albino mice; 14 days): 130 mg/kg
Calculated LD90 (Male albino mice; 14 days): 205 mg/kg
ID50 L1210/PDD [1]: 1.2 µg/mL
ID50 [2]: 2.5 µg/mL
